Article PMC8825577
These are yes or no findings as the source states them, for the method shown. In cells and extracts the contact can be indirect. Some results given as binding are weak or reduced against the parent protein; the word gives no strength.

Chains of the proteins cited; added tags and fusions are not shown.
UniProt Q6PF93: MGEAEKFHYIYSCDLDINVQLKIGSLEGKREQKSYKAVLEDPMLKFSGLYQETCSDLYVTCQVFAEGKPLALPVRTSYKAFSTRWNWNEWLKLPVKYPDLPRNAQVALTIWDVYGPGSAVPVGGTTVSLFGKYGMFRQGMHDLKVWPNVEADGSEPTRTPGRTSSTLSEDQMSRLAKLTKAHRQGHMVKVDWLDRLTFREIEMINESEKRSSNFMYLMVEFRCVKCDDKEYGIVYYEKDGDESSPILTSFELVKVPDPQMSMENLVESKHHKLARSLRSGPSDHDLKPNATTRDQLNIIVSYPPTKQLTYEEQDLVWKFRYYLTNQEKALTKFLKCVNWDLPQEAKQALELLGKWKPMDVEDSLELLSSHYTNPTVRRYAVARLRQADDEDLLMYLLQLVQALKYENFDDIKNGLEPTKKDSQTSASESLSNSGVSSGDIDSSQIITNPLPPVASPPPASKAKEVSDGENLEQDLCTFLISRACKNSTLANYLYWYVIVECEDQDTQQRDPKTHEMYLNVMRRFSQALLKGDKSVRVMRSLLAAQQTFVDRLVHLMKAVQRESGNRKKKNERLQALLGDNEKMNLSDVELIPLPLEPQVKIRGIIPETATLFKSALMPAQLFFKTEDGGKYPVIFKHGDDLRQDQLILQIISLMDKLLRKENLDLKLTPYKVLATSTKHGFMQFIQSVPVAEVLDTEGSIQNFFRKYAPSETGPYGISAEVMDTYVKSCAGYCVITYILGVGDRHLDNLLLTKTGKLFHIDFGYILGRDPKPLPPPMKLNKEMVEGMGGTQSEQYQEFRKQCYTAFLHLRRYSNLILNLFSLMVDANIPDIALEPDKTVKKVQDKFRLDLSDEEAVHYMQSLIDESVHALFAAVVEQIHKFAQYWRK

Molecular target: T1, CCZ1 (endogenous) (mouse (endogenous in N2a cells and mouse brain)) (UniProt Q8C1Y8)
T1 sequence: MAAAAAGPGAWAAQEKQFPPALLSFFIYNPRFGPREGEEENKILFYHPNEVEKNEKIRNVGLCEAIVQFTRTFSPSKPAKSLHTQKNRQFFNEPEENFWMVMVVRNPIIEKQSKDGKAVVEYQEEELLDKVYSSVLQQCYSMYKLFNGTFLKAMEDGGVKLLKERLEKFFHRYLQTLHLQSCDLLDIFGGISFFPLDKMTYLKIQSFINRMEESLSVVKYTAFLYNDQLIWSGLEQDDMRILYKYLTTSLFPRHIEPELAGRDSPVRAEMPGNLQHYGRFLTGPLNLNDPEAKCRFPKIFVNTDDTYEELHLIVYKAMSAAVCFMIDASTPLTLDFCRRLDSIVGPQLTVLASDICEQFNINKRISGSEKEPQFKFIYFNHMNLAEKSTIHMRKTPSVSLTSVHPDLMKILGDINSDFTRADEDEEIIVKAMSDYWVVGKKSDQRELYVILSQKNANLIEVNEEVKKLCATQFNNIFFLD
Assay: co-IP; N2a cell and mouse brain tissue lysates; IP of the endogenous protein with CCZ1 antibody; immunoblot with LC3 and VPS34 antibodies; CCZ1-bound VPS34 from WT and 3xTg AD mouse brain also taken to a lipid kinase assay

- binding: binds
Substance: PIK3C3/VPS34 (endogenous) (from UniProt Q6PF93 1-887) (enzyme)
